Source: article PMC10163288
This is one part of the list.

B1: il10ra_site1_sap_12_mot_HHH_b2_02053_af2_000000006_0001_3_19_H_._HHH_b2_04646_0001_0000300016_0000002_0_0001 (protein)
chain: SSSSSDEEEERVRELLEEAEQIPDPEKAAEVLLEALHLALHLGNQELLQEVWEVVKRLGSSSSSS
B2: il10ra_site1_sap_21_mot_HHH_b1_06914_000000280_0001_1_18_H_._HHH_b1_08370_0001_0000500035_0000001_0_0001_af2pred_0001 (protein)
chain: SSSSSDEREEEVERLLEEAKRIDDPHEVAYLLIRAFALATQANDPELEEEVRKVAQELASSSSSS
B3: il10ra_site1_sap_18_mot_HHH_b2_00277_af2_000000172_0001_1_17_H_._HHH_b2_06595_0001_0000400029_0000002_0_0001_af2pred_0001 (protein)
chain: SSSSSSEEERRVLKLAARLLRRASEEEQEELLRLLVRIFMEGDPRLVEELRKLIEEIEKGSSSSS
B4: il10ra_site1_normal_mot_HHH_b2_00800_af2_000000047_0001_1_20_H_._HHH_b1_07634_0001_0000400033_0000002_0 (protein)
chain: SSSSSSEEQEEFRRLEEELEEAKNAQEFYEILRRLIEVASEARDPELLRLVIELLRRFLKSSSSS
B5: il10ra_site1_normal_mot_HHH_b2_06979_000000158_0001_42_57_H_._HHH_b2_02232_0001_0000100004_0000001_0 (protein)
chain: SSSSSENEEVFRLIKEAAELRSEGNPEEAREVLKEAEELAKEAGNELLEINIEFLLRDIEKSSSS
B6: il10ra_site1_normal_mot_HHH_b1_01880_000000285_0001_23_39_H_._HHH_b2_02582_0001_0000300015_0000001_0_af2pred_0001 (protein)
chain: SSSSSSDEFEELLEEAERLAEELGDEEIEIAIKILERLYRESGDPLIKRTLRALLRVLSSSSSSS
B7: il10ra_site1_normal_mot_HHH_b1_00999_000000080_0001_41_55_H_._HHH_b2_03706_0001_0000600031_0000001_0 (protein)
chain: SSSSDYEERVEELLEQAEELAERGNPEEAARLLQEAVRLAYEAKDQELLKLVWEVAKKLGSSSSS
B8: il10ra_site1_normal_mot_1cde5897893f3d1588f92be3b001cdf2_0001_af2_000000130_0001_54_65_H_._HHH_b2_05871_0001_0000300015_0000001_1_af2pred_0001 (protein)
chain: SSSSSDEEVEERVEELLERLHHVDPKEAAQLLHEAARLAAELDNPELLELVFEAAEEVISSSSSS
B9: il10ra_site1_normal_mot_513c16ae44941e68898e0f7c259e5a28_0001_1_000000056_0001_35_50_H_._ems_p1-15H-GBL-16H-GABBL-16H_0062_0001_0001_0002_0001_0000300016_000000 … (protein)
chain: SSSSSSVEELAEEARELAEERGDEEAEDLVEAIKRLAEQGILDPHAAEVSLRALIRLLEESSSSS
B10: il10ra_site1_normal_mot_493e05f641973f3adf044177f88ae147_0001_af2_000000048_0001_1_12_H_._HHH_b1_05964_af2_0001_0000100001_0000002_0_af2pred_0001 (protein)
chain: SSSSSSREETLRFAVEVLVRAFKLSEEQKEELEELAEELLRRGYDPREVLEILLERAKKLSSSSS
B11: il10ra_site1_sap_14_mot_HHH_b2_06497_000000202_0001_1_20_H_._HHH_b1_08167_af2_0001_0000100005_0000001_0_0001 (protein)
chain: SSSSDLEEEVEELLEEAKRIEDPREAAKVLLRALRLAIEAQDPELLRLVWEVVKEVARRLSSSSS
B12: il10ra_site1_sap_21_mot_HHH_b2_02900_000000189_0001_39_52_H_._HHH_b1_05382_0001_0000300031_0000002_0_0001_af2pred_0001 (protein)
chain: SSSSSSNLYELLREITELLKRGNPEEAEELLEELKKEVEEKNDERAKRQAELLERLIKSSSSSSS
B13: il10ra_site1_normal_mot_HHH_b2_04251_af2_000000037_0001_42_56_H_._HHH_b1_00525_0001_0000200026_0000002_0_af2pred_dldesign_0_af2pred (protein)
chain: SSSSSPEDKARIEELKKRLEELLKEDPEKAREVLRELARLALETGDPEAIAYVLEAAKKLESSSS
B14: il10ra_site1_normal_mot_HHH_b2_02900_000000189_0001_39_52_H_._HHH_b2_05056_0001_0000100005_0000003_0_af2pred_0001 (protein)
chain: SSSSSEELERAVKIFREAAEQLYERGNPEAAKLAVRFALALARDNNNEELVEALEKLLEELSSSS
B15: il10ra_site1_sap_14_mot_HHH_b2_06602_000000226_0001_1_16_H_._HHH_b2_00791_0001_0000300021_0000001_0_0001_af2pred_0001 (protein)
chain: SSSSSDVKERAEELFEELRRLIEEGDEEELEKVFHELVELALKYRDREAAKIAARILKEFSSSSS
B16: il10ra_site1_normal_mot_HHH_b2_07579_000000275_0001_1_19_H_._HHH_b2_02385_0001_0000100006_0000001_0 (protein)
chain: SSSSSDEELREVYELLQRALRIDDPEEVRELLRQAEEIAEELGNFVFLWAIEHRLRDLDSSSSSS
B17: il10ra_site1_normal_mot_HHH_b1_05609_af2_000000134_0001_1_18_H_._HHH_b1_03004_0001_0000100007_0000001_0 (protein)
chain: SSSSSLEEILELSRRAFRLLLRGDKEEAEELLEEALELAREANDPRLARVIEDLLQALRSSSSSS
B18: il10ra_site1_sap_17_mot_HHH_b1_02665_000000293_0001_1_18_H_._HHH_b1_03975_0001_0000800017_0000001_0_0001_af2pred_0001 (protein)
chain: SSSSNDISEEVRRLLREASELLQNGNPEEAEKVVERALELAEEAGNEVLRWAAEFLLKLIRSSSS
B19: il10ra_site1_sap_21_mot_HHH_b1_00103_000000293_0001_1_15_H_._b5c6f2848cbf55e1ecbd417c35b42da7_0001_af2_0001_0000600017_0000002_0_0001 (protein)
chain: SSSSSSSSEEMLEFLIYALERAETEQQRRAALRFLEHMAKWANDEEAEEVVEEFKERHSSSSSSS
B20: il10ra_site1_normal_mot_HHH_b2_04275_000000272_0001_20_36_H_._HHH_b1_00715_af2_0001_0000300033_0000001_0 (protein)
chain: SSSSSTEELYELLREISELQHEGDREEAEKLLEEVRELAEELNNDIILAQVEFLERAVRNSSSSS
B21: il10ra_site1_sap_20_mot_HHH_b1_06914_000000280_0001_1_18_H_._HHH_b1_01194_0001_0000200036_0000001_0_0001 (protein)
chain: SSSSDEDSQRIYELLRLLAELDHEGDEERFEEVYEEVEELIEEANNRVLRAVLEALRRLFESSSS
B22: il10ra_site1_normal_mot_HHH_b1_06789_af2_000000041_0001_1_20_H_._HHH_b1_05385_0001_0000100001_0000001_0_af2pred_0001 (protein)
chain: SSSDKAARHLLELALEAAELALRLGDPEKAREALEIAEKLAEELGDEELLERVERLEELVNSSSS
B23: il10ra_site1_normal_mot_HHH_b2_03425_000000200_0001_22_39_H_._HHH_b1_03120_0001_0000200012_0000001_0 (protein)
chain: SSSSNEEHEELYERLRKLIELVSEGDEEEAEKLLRELEELAEELNDFIILFVVRLLKRQLSSSSS
B24: il10ra_site1_sap_22_mot_HHH_b2_04275_000000272_0001_20_36_H_._HHH_b2_00355_0001_0000200030_0000002_0_0001_af2pred_0001 (protein)
chain: SSSSSEREEFVRRSFHIAEWARKQGDEELAKFALRAAKRAAELSNDPELEELVEELERRLSSSSS
B25: il10ra_site1_normal_mot_HHH_b1_03859_af2_000000004_0001_44_57_H_._HHH_b1_08440_0001_0000100002_0000002_0 (protein)
chain: SSSSDEVLKEASELFQRASRLLEEGDKEEVEKIIEELRELSEEYGDRYVELSLRFLEALLSSSSS
B26: il10ra_site1_normal_mot_2c1a291787c6f40772924d4e9068d803_0001_af2_000000222_0001_34_48_H_._HHH_b1_05888_af2_0001_0000500027_0000002_0 (protein)
chain: SSSSNLEEEIFQLLIRAYRLLQEGDEEEARELLERAQELAEELNDPAALRAVESLLRMLDSSSSS
B27: il10ra_site1_sap_25_mot_HHH_b2_07784_af2_000000103_0001_19_36_H_._HHH_b1_08477_0001_0000100004_0000001_0_0001_af2pred_0001 (protein)
chain: SSSSNEEEERVLQLFLEVARLLDEGDEEKAEEILREAEELAKEINDPRLRLAVRFLKLLLSSSSS
B28: il10ra_site1_sap_21_mot_HHH_b1_02641_af2_000000230_0001_39_52_H_._HHH_b1_08599_af2_0001_0000300012_0000001_0_0001_af2pred_0001 (protein)
chain: SSSSDVEEEIEELVERAEELAEQGNPQEASKLLARASKLALELGDPELALRIAELFAKLSSSSSS
B29: il10ra_site1_normal_mot_b26a303360aa2756ef5b79665ce52f45_0001_000000179_0001_1_11_H_._2c46b57de5df830a699d451437f22a7b_0001_0001_0000100003_0000002_0 (protein)
chain: SEELERVKEVLKKLNTVAAFALLHKLRDLEQQGLSPEEILELLLEIAEEAGSELAREIIQELLEE
B30: il10ra_site1_sap_15_mot_HHH_b1_03328_af2_000000129_0001_1_21_H_._963dea14d5f61e40fbb13539fee36e1a_0001_0001_0000800016_0000002_0_0001 (protein)
chain: SSSSDVLHEIWRLIRKAFELLERGNPEEARRLVEEAQELAEERNDRATLRQLEMLEKKINSSSSS
B31: il10ra_site1_normal_mot_HHH_b1_03333_000000091_0001_1_17_H_._HHH_b2_06884_0001_0000200021_0000001_0 (protein)
chain: SSSSSYEEAKELIELVVQLIRQGNPEEAEEVLEQLEELAKELNTPSLEFAVRLLKEILEESSSSS
B32: il10ra_site1_sap_21_mot_HHH_b1_00103_000000293_0001_1_15_H_._HHH_b2_08346_0001_0000200016_0000001_0_0001 (protein)
chain: SSSSQEEFEEFKRVVEELIELAREGDEEEFERLFQELHERLERLGDEQFLWALEFIYERSSSSSS
B33: il10ra_site1_normal_mot_ems_3hM_2400_000000184_0001_1_19_H_._HHH_b2_04619_af2_0001_0000100001_0000001_0 (protein)
chain: SSSSSEDEEEVEELLEEAKQIEDEHELAQILFEALRIAAESRDEELFREIIRVAAELLERSSSSS
B34: il10ra_site1_sap_17_mot_HHH_b1_01563_af2_000000118_0001_40_54_H_._HHH_b1_07170_0001_0000300020_0000001_0_0001 (protein)
chain: SSSSSEASQLVYELLRRAVELIHEGNEEEARELLEEAERIAEENNNRVLLINIRMLLERISSSSS
B35: il10ra_site1_normal_mot_HHH_b1_00814_af2_000000078_0001_43_57_H_._HHH_b2_04332_0003_0000300022_0000001_0_af2pred_dldesign_0_af2pred (protein)
chain: SSSSMEEEVNSLLEEAEELLKKGKPDEVFALIKKATELAAAAEDGELLQKVRDFARKVLESSSSS
B36: il10ra_site1_sap_22_mot_HHH_b2_01162_af2_000000234_0001_1_19_H_._527b127d34341fb70d6ba2ed43798e0e_0001_0001_0000100001_0000001_0_0001_af2pred_0001 (protein)
chain: SSSSSSEEIEKEVEELIEEAKEIPDPKERLRVLIKAALLAAEVENQELLHEIAKLLRELSSSSSS
B37: il10ra_site1_normal_mot_HHH_b2_05343_000000235_0001_19_35_H_._ems_3hC_444_0001_af2_0001_0000700027_0000002_0 (protein)
chain: SSDEHQEFFRVVREAIEAAAEKDEEEAQRLVEEAERIAEEIGNLVAEHIVKFVKRLVERLASSSS

Molecular target: il10ra, Q13651
Test: yeast display titration

Apparent Kd, inactive:
B1 no binding seen, B2 no binding seen, B3 no binding seen, B4 no binding seen, B5 no binding seen, B6 no binding seen, B7 no binding seen, B8 no binding seen, B9 no binding seen, B10 no binding seen, B11 no binding seen, B12 no binding seen, B13 no binding seen, B14 no binding seen, B15 no binding seen, B16 no binding seen, B17 no binding seen, B18 no binding seen, B19 no binding seen, B20 no binding seen, B21 no binding seen, B22 no binding seen, B23 no binding seen, B24 no binding seen, B25 no binding seen, B26 no binding seen, B27 no binding seen, B28 no binding seen, B29 > 613 nM, B30 no binding seen, B31 no binding seen, B32 no binding seen, B33 no binding seen, B34 no binding seen, B35 no binding seen, B36 no binding seen, B37 no binding seen
